Assay results as given in patent US9521847B2, “Synergistic weed control from applications of pyridine carboxylic acid herbicides and synthetic auxin herbicides and/or auxin transport inhibitors” (Dow AgroSciences LLC, priority 2014, dated 2016).
Where “and” joins values, the source holds several entries; their conditions need not be identical. Equal entries are not always repeated. The name of at least one read-out is uncertain.

How the values were obtained:
Test in all cases: Greenhouse postemergence trial, % visual injury
Details in all cases: 5 g ae/ha
[1] = test system: kochia (KCHSC, Kochia scoparia); type: in vivo
Experimental: Following the protocol in Example 1, compound 1 and compound 2 were combined with 2,4 D EHE (EC) and applied to kochia (KCHSC, Kochia scoparia) and the phytotoxicity of the herbicidal compositions was measured.
Following the protocol in Example 1, compound 1 (EC) and Compound 2 (SC) were combined with diflufenzopyr and applied to kochia (Kochia scoparia, KCHSC) and the phytotoxicity of the herbicidal composition was measured.

[2] = test system: velvetleaf (Abutilon theophrasti, ABUTH); type: in vivo
[3] = test system: poinsettia (Euphorbia heterophylla, EPHHL)
[4] = test system: wild pansy (Viola tricolor, VIOTR)
[5] = test system: ivyleaf morningglory (Ipomoea hederacea, IPOHE)

Nc1c(F)c(-c2ccc3cc[nH]c3c2F)nc(C(=O)O)c1Cl [compound 1]
% visual injury, Obs [1]: 60% | % visual injury, Obs [2]: 50% | % visual injury, Obs [3]: 97% | % visual injury, Obs [4]: 10% and 5% | % visual injury, Obs [5]: 10%
